# Measurements reported in PubChem BioAssay AID1259260 (Sanger Institute, 2017)
# Aim: 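Essential and drug-synergistic kinases in a colorectal cancer cell line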 (primary screen)
# Cell system: human NCI-H716 colorectal cancer cells
# Reagent: siRNA pool against human genes
# Challenge: anchor drugs BYL719 (alpelisib) 1 µM, cetuximab 5 µg/ml or trametinib 10 nM, each at a dose chosen to harm viability only mildly; DMSO vehicle for the knock-down-alone arm
# Detection: 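Replicate-averaged viability relative to a non-targeting pool, a robust z-score for knock-down alone, and a synergy score per anchor drug versus each agent alone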
# Reading the numbers: viability robust z-score, siRNA alone: higher = more surviving cells; below -3 called essential; viability vs control, no drug: higher = more surviving cells; synergy score with BYL719 and synergy score with cetuximab: higher = stronger synergy (synthetic lethality) with drug
# Hit rule: 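a knock-down counts as essential if its no-drug robust z-score is lower than -3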
# Meaning of the calls: active = essential (knock-down alone lowers viability); inactive = no essential effect
# This is an unselected part of 794 reagents tested. 13 of them (1.6%) count as active. 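Calls reflect only knock-down without drug; synergy above 0.15 was grouped apart and does not change the call.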 Entries without a mark were called inactive. No viability above 1 is reported: the scale is capped. Further read-outs or replicates are left out here. The record does not give: the amount of reagent, the time to read-out.
Gene,"viability robust z-score, siRNA alone","viability vs control, no drug (fraction of control)",synergy score with BYL719,synergy score with cetuximab
BRD3 (bromodomain containing 3),0.602,1,-0.283,-0.1
PIK3R3 (phosphoinositide-3-kinase regulatory subunit 3),0.602,1,-0.122,-0.1
TBCK (TBC1 domain containing kinase),0.602,1,-0.118,-0.1
KALRN (kalirin RhoGEF kinase),0.602,1,-0.2,-0.1
CALM2 (calmodulin 2),-0.361,0.9,0.0163,-0.0584
CSNK1E (casein kinase 1 epsilon),-1.63,0.768,-0.063,0.0162
ERBB3 (erb-b2 receptor tyrosine kinase 3),-0.812,0.853,-0.0108,0.0581
CDK3 (cyclin dependent kinase 3),0.602,1,-0.0582,-0.1
PXK (PX domain containing serine/threonine kinase like),-1.11,0.822,-0.342,-0.163
RTN4 (reticulon 4),0.602,1,-0.247,-0.1
OXSR1 (oxidative stress responsive kinase 1),0.602,1,0,-0.1
PACSIN1 (protein kinase C and casein kinase substrate in neurons 1),0.602,1,-0.227,-0.1
GSK3A (glycogen synthase kinase 3 alpha),-0.905,0.843,-0.197,-0.0517
VRK2 (VRK serine/threonine kinase 2),0.602,1,0.0914,-0.1
GRK3 (G protein-coupled receptor kinase 3),0.602,1,-0.0424,-0.1
MARK3 (microtubule affinity regulating kinase 3),0.602,1,-0.227,-0.1
PDK4 (pyruvate dehydrogenase kinase 4),0.602,1,-0.141,-0.1
AMHR2 (anti-Mullerian hormone receptor type 2),-3.24 (active),0.601,-0.212,-0.319
BUB1 (BUB1 mitotic checkpoint serine/threonine kinase),0.602,1,0.149,0.109
"PIM3 (Pim-3 proto-oncogene, serine/threonine kinase)",-1.2,0.813,-0.295,-0.0422
PRKD1 (protein kinase D1),0.602,1,-0.0446,0.00377
MAPKAPK2 (MAPK activated protein kinase 2),0.602,1,-0.154,-0.1
MAST1 (microtubule associated serine/threonine kinase 1),0.602,1,-0.2,-0.1
ROCK1 (Rho associated coiled-coil containing protein kinase 1),0.351,0.974,-0.155,-0.116
PRPS2 (phosphoribosyl pyrophosphate synthetase 2),0.602,1,-0.283,-0.1
CDC7 (cell division cycle 7),0.602,1,-0.0352,-0.0996
TSSK3 (testis specific serine kinase 3),0.602,1,-0.21,0.0719
MSR1 (macrophage scavenger receptor 1),0.56,0.996,-0.0283,-0.00146
CSNK1A1L (casein kinase 1 alpha 1 like),0.491,0.988,-0.197,0.0545
MAP4K1 (mitogen-activated protein kinase kinase kinase kinase 1),-0.0204,0.935,-0.074,-0.0884
STK24 (serine/threonine kinase 24),-0.486,0.887,-0.225,-0.202
"BLK (BLK proto-oncogene, Src family tyrosine kinase)",0.146,0.953,-0.132,-0.0264
DGUOK (deoxyguanosine kinase),-0.851,0.849,-0.188,-0.128
MYLK3 (myosin light chain kinase 3),-0.742,0.86,-0.12,0.192
PIK3C3 (phosphatidylinositol 3-kinase catalytic subunit type 3),0.423,0.981,-0.158,-0.117
HIPK2 (homeodomain interacting protein kinase 2),0.602,1,-0.283,-0.1
PLK3 (polo like kinase 3),0.602,1,-0.0992,-0.0212
NEK6 (NIMA related kinase 6),0.602,1,-0.283,-0.1
"PIM2 (Pim-2 proto-oncogene, serine/threonine kinase)",0.602,1,-0.0105,-0.1
DGKD (diacylglycerol kinase delta),-1.11,0.822,-0.121,-0.0328
CDC73 (cell division cycle 73),0.602,1,-0.186,-0.1
MAP3K14 (mitogen-activated protein kinase kinase kinase 14),-0.118,0.925,-0.0383,-0.168
CSK (C-terminal Src kinase),0.0436,0.942,-0.18,-0.153
STK31 (serine/threonine kinase 31),-0.192,0.917,-0.0502,-0.175
PDGFRL (platelet derived growth factor receptor like),0.602,1,-0.128,-0.1
PHKB (phosphorylase kinase regulatory subunit beta),-0.913,0.843,-0.082,-0.036
NUAK2 (NUAK family kinase 2),0.602,1,0.0469,-0.0588
KCNH8 (potassium voltage-gated channel subfamily H member 8),0.602,1,-0.215,-0.1
CREBBP (CREB binding lysine acetyltransferase),-0.0974,0.927,-0.121,0.0967
CLK2 (CDC like kinase 2),-0.0246,0.935,-0.113,-0.0606

5 neighbouring records already listed, for reference:
Gene,"viability robust z-score, siRNA alone","viability vs control, no drug (fraction of control)",synergy score with BYL719,synergy score with cetuximab
CSNK1E (casein kinase 1 epsilon),-1.63,0.768,-0.063,0.0162
ERBB3 (erb-b2 receptor tyrosine kinase 3),-0.812,0.853,-0.0108,0.0581
CDK3 (cyclin dependent kinase 3),0.602,1,-0.0582,-0.1
PXK (PX domain containing serine/threonine kinase like),-1.11,0.822,-0.342,-0.163
RTN4 (reticulon 4),0.602,1,-0.247,-0.1
